# Percent effect of library compounds

Mtb glucose medium: 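Growth of Mycobacterium tuberculosis over 3 days (7H9 medium with glucose and tyloxapol); the read-out is not stated. Compounds at 50 µM. Direction is inferred from retests: higher values go with more growth inhibition. Of about 69,000 compounds tested this way, about 760 (1.1%) reached 50% or more in at least one test.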
Mtb cholesterol medium: 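Phenotypic screen: M. tuberculosis growth, cholesterol and DPPC medium, 4 days; the read-out is not stated. Concentration: 50 µM. Higher reads as more growth inhibition (inferred: compounds with an IC50 in retests scored well above the rest). Of about 69,000 compounds tested this way, about 370 (0.54%) reached 50% or more in at least one test.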

Results are given as percent effect.
The record does not define 0% and 100%; most values in the screen are far below 50% and negative numbers occur (in some assays of this library far below -100).
The compounds are a random part of those screened.
Two or more numbers in one place are separate tests of the same structure; such repeats can differ widely.

CC(C)N(Cc1ccccc1)Cc1nnsc1Cl gave Mtb glucose medium: -3.607%; Mtb cholesterol medium: -6.32%.
Cc1ccc2c(c1)OC(C)(C)CC2NC(=O)C1CCN(C)CC1 (stereo unspecified) gave Mtb glucose medium: 18.76%; Mtb cholesterol medium: -5.947%.
N#Cc1cc(Cn2cnc(C3CCC3)cc2=O)ccc1F gave Mtb glucose medium: 27.06%; Mtb cholesterol medium: 38.35%.
CC(O)CN(CC(=O)NC(=O)NCC(F)(F)F)c1ccccc1 (stereo unspecified) gave Mtb glucose medium: 4.041%; Mtb cholesterol medium: -2.495%.
COc1cccc(S(=O)(=O)CCN2CCCCC2)c1 gave Mtb glucose medium: -6.005%; Mtb cholesterol medium: -24.81%.
CCc1nc(CSCc2csc(CS(C)(=O)=O)n2)cs1 gave Mtb glucose medium: 36.72%; Mtb cholesterol medium: -2.583%.
NC(=O)C1CCN(CCCc2ccc(C(F)(F)F)cc2)CC1 gave Mtb glucose medium: 6.386% and 9.335%; Mtb cholesterol medium: -3.714%.
O=S(=O)(Nc1ccccn1)c1cc(Cl)cc2c1OCC2 gave Mtb glucose medium: 8.503% and -3.927%; Mtb cholesterol medium: -6.442%.
COCC1CN(Cc2ccncc2)Cc2nnn(CC3CC3)c21.O=C(O)C(F)(F)F.O=C(O)C(F)(F)F (stereo unspecified) gave Mtb glucose medium: -8.075%; Mtb cholesterol medium: -24.14%.
Cc1nn(C)c2cn(C(C)C(=O)NCc3ccncc3)nc12 (stereo unspecified) gave Mtb glucose medium: 5.91%; Mtb cholesterol medium: -4.097%.
CSc1nccc(N2CCCC(c3nccn3C(C)C)C2)n1 (stereo unspecified) gave Mtb glucose medium: -39.56%; Mtb cholesterol medium: -21.38% and 24.74%.
COc1cccc(CN(C)C(=O)CCC(=O)c2ccc(Cl)cc2)c1OC gave Mtb glucose medium: -2.614%; Mtb cholesterol medium: -20.09%.
CN(C(=O)CN1CCC(NC(=O)c2cccs2)CC1)c1ccccc1 gave Mtb glucose medium: 5.247%; Mtb cholesterol medium: -12.95%.
CN1CCCC(c2nc3c([nH]2)CC(C)(C)CNC3=O)C1 (stereo unspecified) gave Mtb glucose medium: -35.73%; Mtb cholesterol medium: -36.07%.
CN1CCN(Cc2noc(CCc3nc(-c4ccccc4)no3)n2)CC1 gave Mtb glucose medium: -33.48%; Mtb cholesterol medium: -17.59%.
COc1ccccc1C1CCN(C(=O)CN2C(=O)OC(C)(C)C2=O)CC1 gave Mtb glucose medium: 8.443%; Mtb cholesterol medium: 4.26%.
CSc1nnc(CNC(=O)Nc2ccccc2F)n1C gave Mtb glucose medium: -27.21%; Mtb cholesterol medium: -9.002% and -9.887%.
COC(=O)c1cc(C(=O)N2CCC(C)CC2)n(-c2ccccc2)n1 gave Mtb glucose medium: 24.24%; Mtb cholesterol medium: 10.38%.
CS(=O)(=O)NC1CCN(C(=O)c2ccc(Br)o2)C1 (stereo unspecified) gave Mtb glucose medium: -1.81%; Mtb cholesterol medium: 1.843% and -5.128%.
O=C(O)C1(n2cccn2)CCN(c2nc(-c3ccccc3)no2)CC1 gave Mtb glucose medium: 15.77%; Mtb cholesterol medium: 20.32%.
CN(CC1CCCCO1)S(=O)(=O)c1cccc(C(=O)N2CCOCC2)c1 (stereo unspecified) gave Mtb glucose medium: -10.9%; Mtb cholesterol medium: -2.281%.
Cc1ccc(C(O)CNC(=O)Nc2cc(C)nn2C)cc1 (stereo unspecified) gave Mtb glucose medium: 1.465%; Mtb cholesterol medium: -0.6367%.
Cc1ccnc(NCCNC(=O)C2CC3(CCNCC3)CN2C)c1 (stereo unspecified) gave Mtb glucose medium: 17.01%; Mtb cholesterol medium: 18.27%.
COCc1ccccc1CNCc1c(C)nn(C)c1N(C)C gave Mtb glucose medium: 19.04%; Mtb cholesterol medium: 9.997%.
CC1CCN(c2ccc(=O)n(CC(=O)N(C)Cc3ccccc3)n2)CC1 gave Mtb glucose medium: -1.979% and -8.644%; Mtb cholesterol medium: 5.02%.
CC(C)c1nncn1CCNC(=O)c1c(O)cc(F)cc1F gave Mtb glucose medium: 2.153%; Mtb cholesterol medium: -2.192%.
CCc1nccn1C1CCCN(C(=O)c2ccc3[nH]cnc3c2)C1 (stereo unspecified) gave Mtb glucose medium: 6.832% and -0.9522%; Mtb cholesterol medium: 11.56%.
[H][C@]12CCCC(N(C)Cc3cccs3)[C@@]1([H])CN(C(=O)c1cccn1C)C2 (stereo partly specified) gave Mtb glucose medium: 5.178% and 15.17%; Mtb cholesterol medium: 17.69%.
CCn1ncnc1C(C)NC(=O)C1CCN(Cc2ccco2)CC1 (stereo unspecified) gave Mtb glucose medium: -3.719% and -1.259%; Mtb cholesterol medium: -8.288% and -4.723%.
Cc1nc(N2CCCC(C)C2)nc2cc(S(C)(=O)=O)ccc12 (stereo unspecified) gave Mtb glucose medium: -24.57%; Mtb cholesterol medium: -23.33%.
[H][C@@]12CS(=O)(=O)C[C@]1([H])N(C(=O)c1cc(C(C)C)no1)CCN2C(=O)C(C)C gave Mtb glucose medium: 5.019%; Mtb cholesterol medium: 46.57%.
COc1ccc(C(=O)N2CCCS2(=O)=O)cc1OC gave Mtb glucose medium: -1.605%; Mtb cholesterol medium: 6.823%.
c1ccc(N2CCCC(c3nc(-c4cccnn4)no3)C2)nc1 (stereo unspecified) gave Mtb glucose medium: 18.61%; Mtb cholesterol medium: 13.65%.

Measurements from “University of Dundee, Small-Polar-MMV Screening Library” (2021), ChEMBL document CHEMBL3988442.